# Where a name gives a salt, the structure may show the parent alone. This is one part of the list. Hit calls seldom repeat between salt and free forms of one compound.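 Kinases were expressed as nanoluciferase fusions in K562 cells and luminescence was read every 4 h between 2 and 18 h as percent of control, DMSO set to 100% and a positive control to 0%. A time point counts as decreased when the signal drops significantly (2 sigma). The hit call is the authors' own, does not follow from the count of time points alone, and its rule is not shown.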
# Amino acid sequences for entries named in this document (tags omitted). A change or cut given only in a name is not applied to a line headed by its entry.
# UniProt Q96KB5: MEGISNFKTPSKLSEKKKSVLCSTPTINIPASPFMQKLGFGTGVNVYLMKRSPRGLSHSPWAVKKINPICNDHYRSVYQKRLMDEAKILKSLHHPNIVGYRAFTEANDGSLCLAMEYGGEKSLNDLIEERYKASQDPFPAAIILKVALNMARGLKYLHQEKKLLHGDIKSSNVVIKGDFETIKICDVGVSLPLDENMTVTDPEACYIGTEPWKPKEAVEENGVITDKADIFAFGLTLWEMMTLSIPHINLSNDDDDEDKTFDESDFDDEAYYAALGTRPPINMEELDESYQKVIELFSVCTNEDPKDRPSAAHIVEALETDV
# UniProt Q15118, whole entry, looked up: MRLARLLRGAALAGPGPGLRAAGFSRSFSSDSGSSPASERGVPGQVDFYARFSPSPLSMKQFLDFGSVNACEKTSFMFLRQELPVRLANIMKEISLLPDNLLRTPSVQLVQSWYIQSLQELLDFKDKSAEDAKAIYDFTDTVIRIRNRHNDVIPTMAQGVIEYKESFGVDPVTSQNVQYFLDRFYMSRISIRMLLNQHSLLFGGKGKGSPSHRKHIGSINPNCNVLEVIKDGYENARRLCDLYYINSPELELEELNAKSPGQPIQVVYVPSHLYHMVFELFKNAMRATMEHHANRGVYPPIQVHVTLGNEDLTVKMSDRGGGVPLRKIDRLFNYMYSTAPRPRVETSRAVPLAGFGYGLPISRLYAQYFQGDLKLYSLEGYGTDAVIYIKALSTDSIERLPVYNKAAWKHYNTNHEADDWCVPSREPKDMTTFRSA
# UniProt P42356, whole entry, looked up: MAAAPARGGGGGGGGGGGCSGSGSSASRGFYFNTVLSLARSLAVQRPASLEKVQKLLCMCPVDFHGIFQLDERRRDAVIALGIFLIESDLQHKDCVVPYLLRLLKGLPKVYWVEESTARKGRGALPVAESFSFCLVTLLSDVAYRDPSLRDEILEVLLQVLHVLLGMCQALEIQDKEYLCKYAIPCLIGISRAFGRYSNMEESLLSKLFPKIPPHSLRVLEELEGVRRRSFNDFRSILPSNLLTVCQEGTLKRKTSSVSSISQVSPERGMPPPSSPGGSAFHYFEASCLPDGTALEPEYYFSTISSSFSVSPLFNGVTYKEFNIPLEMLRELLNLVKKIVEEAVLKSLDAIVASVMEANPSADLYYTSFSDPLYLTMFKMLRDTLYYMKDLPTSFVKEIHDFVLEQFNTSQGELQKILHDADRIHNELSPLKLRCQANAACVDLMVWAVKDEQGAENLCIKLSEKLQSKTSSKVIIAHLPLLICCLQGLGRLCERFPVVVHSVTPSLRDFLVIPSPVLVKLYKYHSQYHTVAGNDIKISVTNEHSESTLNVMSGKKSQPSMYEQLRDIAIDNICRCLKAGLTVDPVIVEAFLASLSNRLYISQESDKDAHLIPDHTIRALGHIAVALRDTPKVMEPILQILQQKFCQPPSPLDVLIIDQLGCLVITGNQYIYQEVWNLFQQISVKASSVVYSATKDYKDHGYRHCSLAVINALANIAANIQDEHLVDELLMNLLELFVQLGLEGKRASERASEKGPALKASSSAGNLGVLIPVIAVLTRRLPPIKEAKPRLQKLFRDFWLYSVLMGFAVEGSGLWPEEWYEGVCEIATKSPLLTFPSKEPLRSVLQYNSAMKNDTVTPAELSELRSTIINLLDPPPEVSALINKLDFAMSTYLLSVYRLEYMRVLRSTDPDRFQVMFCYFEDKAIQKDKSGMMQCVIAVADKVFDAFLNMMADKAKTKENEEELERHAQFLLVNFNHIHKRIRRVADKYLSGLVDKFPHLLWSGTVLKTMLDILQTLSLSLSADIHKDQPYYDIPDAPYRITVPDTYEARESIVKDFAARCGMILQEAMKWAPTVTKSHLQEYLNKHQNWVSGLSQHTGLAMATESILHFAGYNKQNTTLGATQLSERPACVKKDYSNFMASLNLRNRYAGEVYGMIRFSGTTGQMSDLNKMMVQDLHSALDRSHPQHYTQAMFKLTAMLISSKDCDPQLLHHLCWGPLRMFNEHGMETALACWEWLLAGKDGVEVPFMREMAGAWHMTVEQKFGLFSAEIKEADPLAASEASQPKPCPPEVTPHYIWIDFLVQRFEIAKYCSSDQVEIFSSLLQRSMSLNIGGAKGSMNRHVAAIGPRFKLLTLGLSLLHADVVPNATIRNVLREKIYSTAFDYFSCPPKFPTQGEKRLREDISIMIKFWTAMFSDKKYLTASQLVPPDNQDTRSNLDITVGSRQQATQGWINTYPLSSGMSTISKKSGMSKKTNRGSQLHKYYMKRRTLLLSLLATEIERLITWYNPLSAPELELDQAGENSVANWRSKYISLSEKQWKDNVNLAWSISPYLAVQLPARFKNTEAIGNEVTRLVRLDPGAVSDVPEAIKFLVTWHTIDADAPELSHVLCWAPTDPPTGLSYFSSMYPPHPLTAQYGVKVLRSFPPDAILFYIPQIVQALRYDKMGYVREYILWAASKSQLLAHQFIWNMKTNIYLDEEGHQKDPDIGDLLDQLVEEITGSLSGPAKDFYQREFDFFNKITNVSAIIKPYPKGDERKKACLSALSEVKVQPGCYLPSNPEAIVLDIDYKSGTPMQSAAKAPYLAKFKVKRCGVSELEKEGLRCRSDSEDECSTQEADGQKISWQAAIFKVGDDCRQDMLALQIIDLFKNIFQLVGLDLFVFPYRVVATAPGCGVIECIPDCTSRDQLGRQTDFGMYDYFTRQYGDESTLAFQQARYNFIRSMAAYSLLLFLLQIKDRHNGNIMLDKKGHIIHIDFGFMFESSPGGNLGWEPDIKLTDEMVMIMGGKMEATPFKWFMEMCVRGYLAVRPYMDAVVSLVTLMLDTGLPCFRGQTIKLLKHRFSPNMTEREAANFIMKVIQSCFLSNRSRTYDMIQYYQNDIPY
# UniProt Q9UBF8: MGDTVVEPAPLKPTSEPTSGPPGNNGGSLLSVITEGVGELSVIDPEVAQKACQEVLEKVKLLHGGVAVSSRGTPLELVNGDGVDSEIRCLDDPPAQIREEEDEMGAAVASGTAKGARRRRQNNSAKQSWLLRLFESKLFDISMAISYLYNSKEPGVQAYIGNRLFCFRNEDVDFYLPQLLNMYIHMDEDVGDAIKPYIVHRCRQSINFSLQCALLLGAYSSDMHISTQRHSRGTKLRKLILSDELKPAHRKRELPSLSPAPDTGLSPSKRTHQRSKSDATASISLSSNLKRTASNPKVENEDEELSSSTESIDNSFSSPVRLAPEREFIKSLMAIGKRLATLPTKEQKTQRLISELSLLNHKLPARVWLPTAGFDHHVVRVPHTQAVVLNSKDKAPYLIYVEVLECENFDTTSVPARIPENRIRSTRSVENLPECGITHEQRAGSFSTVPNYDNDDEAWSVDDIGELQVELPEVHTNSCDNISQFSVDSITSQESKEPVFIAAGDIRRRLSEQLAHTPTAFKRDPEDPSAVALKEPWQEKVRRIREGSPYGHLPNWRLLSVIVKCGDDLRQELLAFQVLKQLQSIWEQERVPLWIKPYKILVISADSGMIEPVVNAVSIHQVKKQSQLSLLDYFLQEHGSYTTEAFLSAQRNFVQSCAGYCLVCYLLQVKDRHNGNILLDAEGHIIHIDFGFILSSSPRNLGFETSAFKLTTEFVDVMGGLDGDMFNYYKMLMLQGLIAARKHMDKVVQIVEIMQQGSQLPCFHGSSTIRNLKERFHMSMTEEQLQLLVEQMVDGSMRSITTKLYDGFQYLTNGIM
# UniProt Q13131: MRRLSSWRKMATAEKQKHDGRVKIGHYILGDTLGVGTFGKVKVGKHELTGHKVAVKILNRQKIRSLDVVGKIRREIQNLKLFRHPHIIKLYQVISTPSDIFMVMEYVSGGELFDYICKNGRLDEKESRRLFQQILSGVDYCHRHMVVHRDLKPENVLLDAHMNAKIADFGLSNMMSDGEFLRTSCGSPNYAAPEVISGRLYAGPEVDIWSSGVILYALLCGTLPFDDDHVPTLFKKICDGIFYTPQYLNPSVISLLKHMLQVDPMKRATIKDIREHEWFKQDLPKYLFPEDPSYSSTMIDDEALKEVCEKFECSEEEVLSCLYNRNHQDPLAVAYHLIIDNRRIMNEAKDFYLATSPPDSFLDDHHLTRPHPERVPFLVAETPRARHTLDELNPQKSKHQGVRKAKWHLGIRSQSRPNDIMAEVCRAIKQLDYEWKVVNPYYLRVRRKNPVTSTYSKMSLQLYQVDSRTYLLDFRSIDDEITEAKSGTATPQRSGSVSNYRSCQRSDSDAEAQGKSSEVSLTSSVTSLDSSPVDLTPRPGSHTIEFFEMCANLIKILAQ
# UniProt P07949, whole entry, looked up: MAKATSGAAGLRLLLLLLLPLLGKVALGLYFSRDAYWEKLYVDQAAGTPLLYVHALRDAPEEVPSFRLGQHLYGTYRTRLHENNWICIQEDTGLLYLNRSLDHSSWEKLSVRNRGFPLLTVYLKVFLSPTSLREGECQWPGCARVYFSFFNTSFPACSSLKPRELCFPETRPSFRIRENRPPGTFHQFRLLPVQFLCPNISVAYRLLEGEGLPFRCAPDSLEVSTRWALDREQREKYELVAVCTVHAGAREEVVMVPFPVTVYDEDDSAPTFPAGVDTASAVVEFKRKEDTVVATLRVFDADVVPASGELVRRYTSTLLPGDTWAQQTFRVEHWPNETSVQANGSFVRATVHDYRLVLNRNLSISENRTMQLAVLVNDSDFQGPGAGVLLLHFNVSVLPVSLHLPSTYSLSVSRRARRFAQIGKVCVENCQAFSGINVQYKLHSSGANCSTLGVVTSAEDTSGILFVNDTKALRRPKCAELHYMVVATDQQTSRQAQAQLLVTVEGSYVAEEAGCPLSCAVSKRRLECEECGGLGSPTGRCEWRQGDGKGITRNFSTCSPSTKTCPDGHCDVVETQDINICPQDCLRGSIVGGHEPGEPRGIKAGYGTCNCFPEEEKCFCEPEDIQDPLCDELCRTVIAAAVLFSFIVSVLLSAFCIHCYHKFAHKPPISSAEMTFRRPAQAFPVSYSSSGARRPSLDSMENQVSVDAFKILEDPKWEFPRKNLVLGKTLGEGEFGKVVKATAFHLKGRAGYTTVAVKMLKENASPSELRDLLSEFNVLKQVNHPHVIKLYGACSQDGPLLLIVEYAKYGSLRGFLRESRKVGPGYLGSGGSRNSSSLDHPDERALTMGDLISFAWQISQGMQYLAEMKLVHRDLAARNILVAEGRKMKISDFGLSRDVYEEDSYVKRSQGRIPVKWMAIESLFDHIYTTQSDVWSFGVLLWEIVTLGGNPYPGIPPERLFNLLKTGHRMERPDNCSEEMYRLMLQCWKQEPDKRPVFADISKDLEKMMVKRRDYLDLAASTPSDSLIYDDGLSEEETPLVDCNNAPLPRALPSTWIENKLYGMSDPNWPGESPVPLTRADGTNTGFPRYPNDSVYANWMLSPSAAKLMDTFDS
# UniProt P07949, whole entry M918T, looked up: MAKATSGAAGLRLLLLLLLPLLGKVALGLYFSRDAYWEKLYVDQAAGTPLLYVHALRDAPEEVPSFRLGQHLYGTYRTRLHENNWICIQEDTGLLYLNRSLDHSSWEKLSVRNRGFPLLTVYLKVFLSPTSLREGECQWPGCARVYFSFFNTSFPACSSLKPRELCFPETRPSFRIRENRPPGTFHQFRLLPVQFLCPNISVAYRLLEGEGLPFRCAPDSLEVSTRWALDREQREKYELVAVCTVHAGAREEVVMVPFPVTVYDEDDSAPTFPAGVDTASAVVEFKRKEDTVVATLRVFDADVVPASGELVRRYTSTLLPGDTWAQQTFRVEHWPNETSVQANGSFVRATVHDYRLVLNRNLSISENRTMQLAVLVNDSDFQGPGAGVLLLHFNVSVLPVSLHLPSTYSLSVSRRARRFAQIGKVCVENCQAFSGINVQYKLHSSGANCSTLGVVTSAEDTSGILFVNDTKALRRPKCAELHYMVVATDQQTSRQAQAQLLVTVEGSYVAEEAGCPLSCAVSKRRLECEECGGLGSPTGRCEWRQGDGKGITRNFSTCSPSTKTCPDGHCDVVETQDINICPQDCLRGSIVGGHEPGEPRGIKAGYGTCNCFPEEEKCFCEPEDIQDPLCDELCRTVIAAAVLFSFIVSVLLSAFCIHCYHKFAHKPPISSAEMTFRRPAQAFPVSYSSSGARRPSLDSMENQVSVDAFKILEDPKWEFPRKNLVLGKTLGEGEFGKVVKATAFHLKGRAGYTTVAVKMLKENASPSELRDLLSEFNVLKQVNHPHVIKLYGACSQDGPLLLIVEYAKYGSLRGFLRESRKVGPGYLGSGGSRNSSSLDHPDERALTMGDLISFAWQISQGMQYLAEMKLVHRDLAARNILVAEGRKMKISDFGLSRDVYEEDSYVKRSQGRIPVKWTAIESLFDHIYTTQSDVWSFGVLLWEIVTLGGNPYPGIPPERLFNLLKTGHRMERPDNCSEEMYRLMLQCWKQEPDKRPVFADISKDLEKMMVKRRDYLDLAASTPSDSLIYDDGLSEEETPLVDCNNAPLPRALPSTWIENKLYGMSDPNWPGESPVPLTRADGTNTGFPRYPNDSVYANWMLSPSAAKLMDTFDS
# Tests used:
# Test in all cases: number of time points (of 5) at which kinase-Nluc abundance scored as decreased, DMSO-normalised (count); higher = more persistent destabilization
# Conditions in all cases: K562; 2-18 h
# NTRK3 = NTRK3 (UniProt Q16288)
# PAK4 = PAK4 (UniProt O96013)
# PBK = PBK (UniProt Q96KB5)
# PDGFRB = PDGFRB (UniProt P09619)
# PDK1 = PDK1 (UniProt Q15118)
# PDPK1 = PDPK1 (UniProt O15530)
# PIK4CA = PIK4CA (UniProt P42356)
# PIK4CB = PIK4CB (UniProt Q9UBF8)
# PLK1 = PLK1 (UniProt P53350)
# PRKAA1 = PRKAA1 (UniProt Q13131)
# PRKCA = PRKCA (UniProt P17252)
# PTK2 = PTK2 (UniProt Q05397)
# PTK2B = PTK2B (UniProt Q14289)
# RAF1 = RAF1 (UniProt P04049)
# [1] = molecular target: RAF1_S257L (clone: RAF1_mut) (UniProt P04049)
# RET = RET (UniProt P07949)
# [2] = molecular target: RET_M918T (clone: RET_mut) (UniProt P07949)
# RIOK1 = RIOK1 (UniProt Q9BRS2)
# RIPK1 = RIPK1 (UniProt Q13546)
# RIPK2 = RIPK2 (UniProt O43353)
Compound,number of time points (NTRK3),number of time points (PAK4),number of time points (PBK),number of time points (PDGFRB),number of time points (PDK1),number of time points (PDPK1),number of time points (PIK4CA),number of time points (PIK4CB),number of time points (PLK1),number of time points (PRKAA1),number of time points (PRKCA),number of time points (PTK2),number of time points (PTK2B),number of time points (RAF1),number of time points [1],number of time points (RET),number of time points [2],number of time points (RIOK1),number of time points (RIPK1),number of time points (RIPK2)
C=CC(=O)Nc1cc(Nc2nccc(-c3cn(C)c4ccccc34)n2)c(OC)cc1OCCN(C)C [Rezivertinib] (2.5 µM),0,0,0,0,0,0,0,0,0,0,0,0,0,0,0,0,0,0,0,0
O=C(O)c1ccc(/C=C/S(=O)(=O)Cc2ccc(Cl)cc2)cc1 [Recilisib] (10 µM),0,0,0,0,0,0,0,0,0,0,4,0,0,0,0,0,0,0,0,0
Cn1c(=O)c2c(nc(S(C)(=O)=O)n2C)n(CC#Cc2cccc(O)c2)c1=O (2.5 µM),0,0,0,0,0,0,0,0,0,0,0,0,0,0,0,0,0,0,0,0
Cc1cccc(COc2cccc(/C=C3\C(=O)NN(c4ccccc4)C3=O)c2)c1 (10 µM),0,0,0,0,0,0,0,0,0,0,0,0,0,0,0,0,0,0,0,0
Nc1ncnc2c1nc(Br)n2[C@@H]1O[C@@H]2COP(=O)(O)O[C@H]2[C@H]1O [8-Bromo-cAMP sodium salt] (10 µM),0,0,0,0,0,0,0,0,0,0,0,0,0,0,0,0,0,0,0,0
O=C(NCCN1CCOCC1)Nc1nc2ccc(Sc3nnc4ccc(-c5ccc(F)cc5)nn34)cc2s1 (10 µM),0,0,0,0,0,0,0,0,0,0,0,2,0,0,0,0,0,0,0,0
Cc1ccc(-n2nc(C(C)(C)C)cc2NC(=O)Nc2ccc(OCCN3CCOCC3)cc2)cc1 (10 µM),0,0,0,0,0,0,0,0,0,0,0,0,0,0,0,0,0,0,0,0
COc1cc2c(cc1OC)/C(=C/c1ccc(O)cc1)C(=O)N2 (10 µM),0,0,0,0,0,0,0,0,0,0,0,0,0,0,0,0,0,0,0,0
Brc1ccc(CSc2nc3ccccc3o2)cc1 [BMP signaling agonist sb4] (10 µM),0,0,0,0,0,0,0,0,0,0,0,0,0,0,0,0,0,0,0,0
O=c1cc(N2CCOCC2)oc2c(-c3ccc4c(c3)OCCO4)csc12 (2.5 µM),0,0,0,0,0,0,0,0,0,0,0,0,0,0,0,0,0,0,0,0
CCN(CC)CCOc1ccc(Nc2nc(-c3ccccc3NC(=O)CCN3CCN(C)CC3)nc3ccccc23)cc1 (2.5 µM),0,0,0,0,0,0,0,0,0,0,0,0,0,0,0,0,0,0,0,0
Nc1nc2c(nc(Br)n2[C@@H]2O[C@@H]3COP(=O)(O)O[C@H]3[C@H]2O)c(=O)[nH]1 [8-Bromo-cGMP (sodium)] (10 µM),0,0,0,0,0,0,0,0,0,0,0,0,0,0,0,0,0,0,0,0
COc1cc(N2CCOCC2)ccc1Nc1ncc(F)c(Nc2ccccc2NS(C)(=O)=O)n1 (10 µM),0,0,0,0,0,0,0,0,0,0,0,0,0,0,0,0,0,0,0,0
N#C/C(=C\c1ccc(O)c(O)c1)C(=O)O [Tyrphostin AG30] (10 µM),0,0,0,0,0,0,0,0,0,0,0,0,0,0,0,0,0,0,0,0
COc1cc(F)ccc1-c1ncnc(Nc2cccc(C[S@](C)(=N)=O)c2)n1 [Atuveciclib] (2.5 µM),0,0,0,2,0,2,0,2,0,2,0,0,0,2,2,0,0,0,2,0
O=C(Nc1cccnc1)c1cc(-c2ccnc(F)c2)ccc1OCc1ccccc1 (10 µM),0,0,0,0,0,0,0,0,0,0,0,0,0,0,0,0,0,0,0,0
CO[C@H]1C[C@@H]2CC[C@@H](C)[C@@](O)(O2)C(=O)C(=O)N2CCCC[C@H]2C(=O)O[C@H]([C@H](C)C[C@@H]2CC[C@@H](OCCO)[C@H](OC)C2)CC(=O)[C@H](C)/C=C(\C)[C@@H](O)[C@@H](OC)C(=O)[C@H](C)C[C@H](C)/C=C/C=C/C=C/1C [Everolimus] (10 µM),0,0,0,0,0,0,0,0,1,0,0,1,0,0,0,0,0,0,0,0
CC(C)[C@H](CO)Nc1nc(Nc2cccc(Cl)c2)c2ncn(C(C)C)c2n1 [Purvalanol A] (10 µM),0,0,0,0,0,0,0,0,0,0,0,4,0,0,0,0,0,0,0,0
CC(C)=CC[C@@H](O)C1=CC(=O)c2c(O)ccc(O)c2C1=O [Shikonin] (10 µM),0,0,0,0,0,0,0,0,0,0,0,0,0,0,0,0,0,0,0,0
CCN1CCN(Cc2cnc(Nc3cc(-c4cc(F)c5nc(C)n(C(C)C)c5c4)c(F)cn3)nc2)CC1 (10 µM),0,0,0,0,0,0,0,0,0,0,0,0,0,0,1,0,0,0,0,0
O=c1c2c([nH]n1-c1nc3ccccc3s1)CCCC2 (10 µM),0,0,0,0,0,0,0,0,0,0,0,0,0,0,0,0,0,0,0,0
CC1CN(CC2CCN(Cc3ccccc3)CC2)C(=O)N(c2cccc(C(=N)N)c2)C1 (stereo not given) (10 µM),0,0,0,0,0,0,0,0,0,0,0,0,0,0,0,0,0,0,0,0
CC(C)(C)Cc1[nH]nc2c1[C@@](C)(c1ccccc1)C1=C(CC(C)(C)CC1=O)N2 (10 µM),0,0,0,0,0,0,0,0,0,0,0,0,0,0,0,0,0,0,0,0
Cn1ncc(NC(=O)c2nc(-c3c(F)cccc3F)sc2N)c1N1CC[C@@H](N)[C@H](F)CC1 (10 µM),0,0,0,0,0,2,0,0,0,0,0,0,0,0,2,0,0,0,0,0

# As a working copy, part of the list above.
Compound,number of time points (NTRK3),number of time points (PAK4),number of time points (PBK),number of time points (PDGFRB),number of time points (PDK1),number of time points (PDPK1),number of time points (PIK4CA),number of time points (PIK4CB),number of time points (PLK1),number of time points (PRKAA1),number of time points (PRKCA),number of time points (PTK2),number of time points (PTK2B),number of time points (RAF1),number of time points [1],number of time points (RET),number of time points [2],number of time points (RIOK1),number of time points (RIPK1),number of time points (RIPK2)
Nc1nc2c(nc(Br)n2[C@@H]2O[C@@H]3COP(=O)(O)O[C@H]3[C@H]2O)c(=O)[nH]1 [8-Bromo-cGMP (sodium)] (10 µM),0,0,0,0,0,0,0,0,0,0,0,0,0,0,0,0,0,0,0,0
COc1cc(N2CCOCC2)ccc1Nc1ncc(F)c(Nc2ccccc2NS(C)(=O)=O)n1 (10 µM),0,0,0,0,0,0,0,0,0,0,0,0,0,0,0,0,0,0,0,0

# From the supplement of paper PMC12823440, “Inhibitors supercharge kinase turnover through native proteolytic circuits” (Nature, 2025)
